# Results: patent US5561131A, “Defaunation method” (Mallinckrodt Veterinary, Inc., priority 1991, dated 1996)
# Assay: Wool growth trial: feed intake
# Format: in vivo
# Details: sheep, defaunated period, 167 mg/kg
row,Structure (SMILES),Feed Intake [g]
1,"Cc1ccc(Nc2nc(Cl)nc(Cl)n2)cc1Cl [Compound 27, 2,4 dichloro-6-(3 chloro-4-methylanilino)-s-triazine]",1000
2,"Cc1ccc(Nc2nc(Cl)nc(Cl)n2)c(C)c1 [Compound 30, 2,4 dichloro-6-(2,4-dimethylanilino)-s-triazine]",1400
3,"Clc1nc(Cl)nc(Nc2ccccc2Cl)n1 [Compound 37, 2,4-dichloro-6-(2-chloroanilino)-1,3,5-triazine]",982
